Source: patent US20060088533A1, “Methods of treating inflammatory bowel disease” (priority 2004, published 2006)
At least one structure is not confirmed: it was looked up by name or label, or the drawing left a doubt.

How the values were obtained:
EGFR = biological target: T1, EGFR (Homo sapiens, UniProt P00533); test: Western blot of EGFR phosphorylation in colonocytes exposed to C. difficile toxin; format: cell-based; settings: NCM460 cells; BB94 or GM6001 25 μM 30 minutes prior to TxB 20 nM; versus DMSO at 60 minutes
T1 construct: endogenous in cells; host or cells: NCM460 (nontransformed human colonic epithelial cells); HT29 (colonic adenocarcinoma cells)

ERK1/2 = test: Western blot of ERK1/2 phosphorylation in colonocytes exposed to C. difficile toxin or LPA; format: cell-based, human; settings: NCM460 cells; BB94 3 mg/ml or GM6001 25 μM 30 minutes prior to TxB 20 nM; versus DMSO at 60 minutes
Experimental: NCM460 or HT29 cells were seeded in 12 well plates and grown to 70%-100% confluency. Cells were serum starved overnight prior to experiments. TxB or TxA were added in serum free medium at the indicated concentrations for varying lengths of time. Cells were then washed three times with ice cold phosphate buffered saline (PBS) and lysed in 1×SDS sample buffer (Cell Signaling Technology, Beverly, Mass.). Equal amounts of cell lysates were loaded onto 10% SDS-PAGE gels and transferred to nitrocellulose membranes (Bio-Rad Laboratories, Hercules, Calif.). Blots were probed with each primary antibody overnight at 4° C. and then with species-specific secondary antibodies coupled with horseradish peroxidase for 1 hour at room temperature. Peroxidase activity was detected by SuperSignal Chemiluminescent Substrate (Pierce, Rockford, Ill.). Signals were analyzed and quantified as described (Na, X. et al., EMBO J., 22:4249-4259 (2003)) and results were expressed as mean ±SD.

## CNC(=O)[C@H](Cc1ccccc1)NC(=O)[C@H](CC(C)C)[C@H](CSc1cccs1)C(=O)NO [BB94, batimastat]
EGFR
  Activation of the EGFR induced by TxB: significantly inhibited
ERK1/2
  Activation of ERK1/2 induced by TxB: significantly inhibited
